From article PMC10611828 (European Journal of Nuclear Medicine and Molecular Imaging, 2023) come the findings set out here.

Bounds are passed on as bounds.

Series [1] is described as follows: general procedure: Fmoc solid-phase peptide synthesis; Rink Amide MBHA Resin; HBTU/Oxyma Pure/DIPEA; PyBOP/DIPEA. To be noted: whole synthesis.
The nature of series [2]: general procedure: Fmoc solid-phase peptide synthesis; Chlorotrityl resin; Rink amide MBHA resin; HBTU/Oxyma Pure/DIPEA; PyBOP/DIPEA. The settings on record: whole synthesis, HPLC (LC/MS 1260 Infinity II, Agilent).
Series [3] in a line: general procedure: Fmoc solid-phase peptide synthesis; Chlorotrityl resin; HBTU/Oxyma Pure/DIPEA; PyBOP/DIPEA. The settings on record: whole synthesis.

The substance “DOTA-Pip-D-Phe-Gln-Trp-Ala-Val-Gly-His-Sta-Leu-NH2 [RM2]” returned an isolated yield in series [1] of 55.9%. For the same substance, the “final purity (method not given)” value in series [2] was above 95%.

In the case of “DOTA-pADA-D-Phe-Gln-Trp-Ala-Val-Gly-His-NH-CH[CH2-CH(CH3)2]2”, the isolated yield in series [3] stood at 50.2%. Also, the “final purity (method not given)” value in series [2] is above 95%.
